In patent US5260210A, “Blood-brain barrier model” (priority 1990, dated 1993):
“Also recorded” adds a separate entry of the source.

Tested on: bovine brain capillary endothelial cells
Test: Transmonolayer (transendothelial cell) electrical resistance in the in vitro BBB model
Protocol: The degree of tightness of tight junctions can be also assessed by transcellular electrical resistance measurements. For transendothelial cell resistance measurements, cells were grown on a porous solid support, e.g., a filter or membrane attached to a holding device in order adequately to suspend the cellular monolayer, such as the Costar Transwell apparatus or the ICN Cellogen. […] Cells were maintained in a growth medium or physiological saline, and calomel electrodes on each of the endothelial cells are connected by a saturated KCl - 3% agar bridge. Current is passed between two Ag--AgCl electrodes and the voltage measured with a Keithly multimeter. Resistance is calculated from the change in voltage across the monolayer induced when a short current pulse (10-100 μamp) is applied. The resistance of the filter or membrane alone is subtracted. The resistance, multiplied by the surface area of the filter or membrane, yields the resistance in ohms-cm^2.
Bovine brain capillary endothelial cells were grown on polycarbonate filters in a conditioned growth medium containing either 5% or 10% PDHS. In controls, the growth medium contained 5% PDHS (.quadrature.) or 10% PDHS. […]
Bovine brain endothelial cells were dissociated and plated on tissue culture dishes in 50% MEM/FCS - 50% ADCM. […]
Resistance was then measured at various times. […]

`CN[C@@H]1C[C@H]2O[C@@](C)([C@@H]1OC)n1c3ccccc3c3c4c(c5c6ccccc6n2c5c31)C(=O)NC4` [Staurosporine] was tested, and the “reversibility of effect of protein kinase inhibitors” value was “reversible” and the “effect of protein kinase inhibitors on resistance” value (10-200 nM) was “remarkably effective in reducing resistance; also recorded: markedly reduce the resistance”.
